PubChem BioAssay AID504774 | Drosophila RNAi Screening Center – 2011

Assay: 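Genes required for cells to withstand methyl methanesulphonate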 (primary screen)
System: Drosophila Kc167 cells
Reagent: long dsRNA against Drosophila genes, about 0.25 µg dsRNA per well
Time to read-out: about 6 days: 3 days knock-down, then 3 days with or without MMS
Challenge: methyl methanesulphonate 0.004% (w/v) for 3 days after knock-down
Measurement: 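Viability in wells given MMS, read as ATP luminescence, normalised by quantiles plate by plate and averaged across replicates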
Reading the numbers: mean viability with MMS and viability with MMS: higher = more surviving cells after MMS
The screen tested about 23,000 reagents; below is a random part of those with a known target gene and a result. 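Values are quantile-normalised luminescence on an arbitrary scale; higher means more cells surviving MMS.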

| target gene | dsRNA | mean viability with MMS | viability with MMS, replicate 1 | viability with MMS, replicate 2 |
| --- | --- | --- | --- | --- |
| pHCl-1 | DRSC09401 | 3.81e6 | 4.28e6 | 4.29e6 |
| pHCl-1 | DRSC09991 | 3.59e6 | 4.10e6 | 4.04e6 |
| pHCl-1 | DRSC10589 | 3.62e6 | 4.08e6 | 4.11e6 |
| Mctp | DRSC06510 | 3.44e6 | 4.01e6 | 3.74e6 |
| Mctp | DRSC22896 | 3.50e6 | 3.94e6 | 4.02e6 |
| eEF5 | DRSC04681 | 3.39e6 | 3.83e6 | 3.81e6 |
| Dhfr | DRSC16646 | 3.30e6 | 3.77e6 | 3.68e6 |
| Rdh1 | DRSC06812 | 3.42e6 | 4.01e6 | 3.68e6 |
| CG34299 | DRSC13974 | 3.31e6 | 3.84e6 | 3.68e6 |
| CG14500 | DRSC06471 | 3.63e6 | 4.15e6 | 4.06e6 |
| usp | DRSC18847 | 3.37e6 | 3.86e6 | 3.81e6 |

No new results follow: 2 of the entries above.
| target gene | dsRNA | mean viability with MMS | viability with MMS, replicate 1 | viability with MMS, replicate 2 |
| --- | --- | --- | --- | --- |
| CG34299 | DRSC13974 | 3.31e6 | 3.84e6 | 3.68e6 |
| CG14500 | DRSC06471 | 3.63e6 | 4.15e6 | 4.06e6 |

The listing continues:
| target gene | dsRNA | mean viability with MMS | viability with MMS, replicate 1 | viability with MMS, replicate 2 |
| --- | --- | --- | --- | --- |
| Or22b | DRSC00765 | 3.56e6 | 3.83e6 | 4.25e6 |
| Est-Q | DRSC11835 | 3.51e6 | 3.83e6 | 4.12e6 |
| cype | DRSC02356 | 3.40e6 | 3.71e6 | 3.97e6 |
| ng4 | DRSC18805 | 3.63e6 | 4.07e6 | 4.17e6 |
| Dbx | DRSC08270 | 3.51e6 | 3.95e6 | 4.02e6 |
| Dbx | DRSC08271 | 3.56e6 | 4.04e6 | 4.03e6 |
| Dbx | DRSC08394 | 3.50e6 | 3.91e6 | 4.03e6 |
| CG5326 | DRSC13568 | 3.65e6 | 4.09e6 | 4.16e6 |
| CG5326 | DRSC15770 | 3.74e6 | 4.18e6 | 4.23e6 |
| CG15930 | DRSC18107 | 3.59e6 | 3.94e6 | 4.21e6 |
| ct | DRSC18757 | 2.75e6 | 3.36e6 | 3.38e6 |
| CG7044 | DRSC16180 | 3.39e6 | 3.95e6 | 3.78e6 |
| SK | DRSC17387 | 3.44e6 | 4.01e6 | 3.81e6 |
| SK | DRSC17751 | 3.58e6 | 3.90e6 | 4.24e6 |
| SK | DRSC17887 | 3.49e6 | 3.76e6 | 4.15e6 |
| SK | DRSC17888 | 3.53e6 | 3.80e6 | 4.22e6 |
| SK | DRSC18353 | 3.57e6 | 4.09e6 | 3.99e6 |
| SK | DRSC21840 | 3.28e6 | 3.86e6 | 3.79e6 |
